The record followed here is publication PMC8611766.

Chains of the proteins cited; added tags and fusions are not shown. Residues count along the entry.
UniProt Q62151, residues 23-402: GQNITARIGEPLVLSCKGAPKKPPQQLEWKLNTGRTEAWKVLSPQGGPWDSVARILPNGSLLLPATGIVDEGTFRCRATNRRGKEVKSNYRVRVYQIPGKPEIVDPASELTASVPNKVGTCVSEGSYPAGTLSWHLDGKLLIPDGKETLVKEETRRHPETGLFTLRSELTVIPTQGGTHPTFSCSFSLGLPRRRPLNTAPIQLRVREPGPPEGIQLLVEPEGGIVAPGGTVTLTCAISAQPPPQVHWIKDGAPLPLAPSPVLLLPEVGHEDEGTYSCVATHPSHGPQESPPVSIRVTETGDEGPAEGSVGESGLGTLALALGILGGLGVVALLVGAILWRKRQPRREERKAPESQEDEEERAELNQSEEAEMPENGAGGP

No constants are given. Whether binding was seen depends on the method and setting. Binding seen in cells or lysates may run through a third protein. Some binding calls cover weakened binding; strength is not graded here.

Assay [1] concerns the target T1, F-box protein O10 (FBXO10) (mouse (in BV2 cells; whether endogenous is not stated)) (UniProt Q7TQF2).
T1 sequence: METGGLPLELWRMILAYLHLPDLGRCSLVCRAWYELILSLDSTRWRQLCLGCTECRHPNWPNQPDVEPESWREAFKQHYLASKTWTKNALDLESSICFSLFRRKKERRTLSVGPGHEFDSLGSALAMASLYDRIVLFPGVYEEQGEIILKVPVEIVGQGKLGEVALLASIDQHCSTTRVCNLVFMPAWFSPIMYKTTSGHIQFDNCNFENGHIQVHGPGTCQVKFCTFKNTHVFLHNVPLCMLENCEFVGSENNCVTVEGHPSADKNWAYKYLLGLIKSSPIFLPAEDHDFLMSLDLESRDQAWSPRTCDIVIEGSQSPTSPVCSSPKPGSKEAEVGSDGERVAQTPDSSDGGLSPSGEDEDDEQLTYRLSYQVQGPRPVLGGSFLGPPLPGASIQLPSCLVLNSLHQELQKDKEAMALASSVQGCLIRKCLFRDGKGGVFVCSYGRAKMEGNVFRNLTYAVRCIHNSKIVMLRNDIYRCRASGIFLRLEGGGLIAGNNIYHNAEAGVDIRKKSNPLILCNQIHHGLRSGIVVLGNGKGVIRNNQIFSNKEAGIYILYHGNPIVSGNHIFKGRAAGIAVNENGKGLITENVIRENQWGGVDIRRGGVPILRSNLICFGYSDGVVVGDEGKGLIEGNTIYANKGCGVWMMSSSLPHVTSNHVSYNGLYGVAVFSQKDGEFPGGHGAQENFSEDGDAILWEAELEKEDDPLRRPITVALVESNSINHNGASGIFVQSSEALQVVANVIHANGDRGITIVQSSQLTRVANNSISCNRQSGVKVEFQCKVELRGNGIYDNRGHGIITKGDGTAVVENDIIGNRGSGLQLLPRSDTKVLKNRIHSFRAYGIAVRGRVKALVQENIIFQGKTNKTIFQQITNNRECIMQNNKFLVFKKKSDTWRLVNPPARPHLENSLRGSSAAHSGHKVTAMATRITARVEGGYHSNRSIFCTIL
Description: co-IP; 500 ug total protein from cell lysates, precleared with protein A/G beads, primary antibody at 4 C overnight; IP for FBXO10 or for RAGE, immunoblot for FBXO10 or RAGE.

The target of assay [2] is receptor for advanced glycosylation end products (RAGE) (mouse (in BV2 cells; whether endogenous is not stated)) (UniProt Q62151). The assay is described as above.

Regarding “receptor for advanced glycosylation end products (RAGE) (from UniProt Q62151 23-402)”, the binding result in assay [1] was “binds”.

B1: F-box protein O10 (FBXO10) (protein, UniProt Q7TQF2 1-950)
chain: T1 sequence
Regarding B1, in assay [2], the binding result is given as “binds”.
